Data reported in patent US20120157402A1, “METHODS FOR TREATING BRAIN TUMORS” (priority 2009, published 2012).
At least one compound was matched to its structure with a doubt left.

Key:
[1] = test system: VEGF121 and VEGF165; test: ELISA of soluble VEGF121/165 production in HeLa cells under hypoxia or normoxia; type: cell-based, human; conditions: 48 hours
[2] = test system: HT1080 cells; test: Cell cycle analysis in HT1080 cells, propidium iodide flow cytometry (Table 24; reversibility); type: cell-based, human; conditions: HT1080, normoxic, 18 hours; Compound #10 0.3-100 nM, Compound 1205 10 nM
Method: Experimental Design. […] After treatment, cells were trypsinized, and stained with propidium iodide (PI) dye to measure DNA content of individual cells by flow cytometry. Output comprised histograms showing relative DNA content in 10,000 cells.
While compounds which cause greater than 20% of the cells to accumulate in S-phase at 100 nM are considered active, a larger percentage of cells may be accumulated in S-phase at lower doses depending on the Compound, as shown in FIG. 12 for example.

## O=C(Oc1ccc(Cl)cc1)N1CCc2c([nH]c3ccc(Cl)cc23)[C@@H]1c1ccc(OCC[C@H](O)CO)cc1 [Compound 1205]
[1]
  Inhibition of hypoxia (stress)-induced VEGF production, qualitative: inhibit stress-induced VEGF production
[2]
  Cell cycle distribution (DNA content): induced a redistribution of the cycling characteristics of the cell population
